The values below come from paper PMC7592556.

Chains of the proteins cited; added tags and fusions are not shown. Residues count along the entry.
His6-SUMO fusion protein of the complete Shank3 N-terminus (SPN-Ank, residues 1-348) (Q9JLU4, residues 1-348): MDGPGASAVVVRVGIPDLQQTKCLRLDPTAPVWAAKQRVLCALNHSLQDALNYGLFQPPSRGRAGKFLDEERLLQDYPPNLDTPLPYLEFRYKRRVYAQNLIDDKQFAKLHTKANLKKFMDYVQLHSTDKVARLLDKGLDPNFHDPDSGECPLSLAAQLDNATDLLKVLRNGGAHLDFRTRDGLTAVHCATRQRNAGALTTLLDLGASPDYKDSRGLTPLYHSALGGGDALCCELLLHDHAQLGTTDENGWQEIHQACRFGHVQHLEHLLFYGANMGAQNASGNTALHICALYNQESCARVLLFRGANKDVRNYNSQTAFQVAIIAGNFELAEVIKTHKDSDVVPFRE
His6-SUMO fusion protein of the Shank3 Ank repeats (residues 99-348) (Q9JLU4, residues 99-348): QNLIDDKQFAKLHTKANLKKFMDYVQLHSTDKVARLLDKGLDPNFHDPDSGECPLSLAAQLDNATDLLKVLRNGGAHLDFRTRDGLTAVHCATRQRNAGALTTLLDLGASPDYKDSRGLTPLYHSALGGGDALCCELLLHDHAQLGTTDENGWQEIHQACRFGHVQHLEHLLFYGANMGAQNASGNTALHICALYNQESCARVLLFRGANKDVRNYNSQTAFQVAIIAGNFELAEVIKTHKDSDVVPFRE

Test [1] deals with His6-SUMO fusion protein of the complete Shank3 N-terminus (SPN-Ank, residues 1-348) (rat) (UniProt Q9JLU4). Kind of test: affinity purification with mass spectrometry; His6-SUMO-Shank3 fragments (SPN-Ank or Ank only) coupled to NHS-Sepharose; mouse forebrain PSD fraction solubilised in DOC buffer (50 mM Tris pH 9.0, 1% Na-deoxycholate); 2 h, 5 washes; LC-MS/MS, LFQ intensities compared with a SUMO matrix; four purifications (two SPN-Ank, two Ank only); only the target purified.

For test [2], the target named is His6-SUMO fusion protein of the Shank3 Ank repeats (residues 99-348) (rat) (UniProt Q9JLU4). Described as above.

Results are given in words; binding and its absence hold for the method and conditions named. Binding seen in cells or lysates may run through a third protein. A yes stands for co-enrichment or nearness to the bait. Other partners may have been found.

B1: Latrophilin-1 (protein, UniProt Q80TR1 29-1466)
chain: GLPFGLMRRELACEGYPIELRCPGSDVIMVENANYGRTDDKICDADPFQMENVQCYLPDAFKIMSQRCNNRTQCVVVAGSDAFPDPCPGTYKYLEVQYDCVPYIFVCPGTLQKVLEPTSTHESEHQSGAWCKDPLQAGDRIYVMPWIPYRTDTLTEYASWEDYVAARHTTTYRLPNRVDGTGFVVYDGAVFYNKERTRNIVKYDLRTRIKSGETVINTANYHDTSPYRWGGKTDIDLAVDENGLWVIYATEGNNGRLVVSQLNPYTLRFEGTWETGYDKRSASNAFMVCGVLYVLRSVYVDDDSEAAGNRVDYAFNTNANREEPVSLAFPNPYQFVSSVDYNPRDNQLYVWNNYFVVRYSLEFGPPDPSAGPATSPPLSTTTTARPTPLTSTASPAATTPLRRAPLTTHPVGAINQLGPDLPPATAPAPSTRRPPAPNLHVSPELFCEPREVRRVQWPATQQGMLVERPCPKGTRGIASFQCLPALGLWNPRGPDLSNCTSPWVNQVAQKIKSGENAANIASELARHTRGSIYAGDVSSSVKLMEQLLDILDAQLQALRPIERESAGKNYNKMHKRERTCKDYIKAVVETVDNLLRPEALESWKDMNATEQVHTATMLLDVLEEGAFLLADNVREPARFLAAKQNVVLEVTVLNTEGQVQELVFPQEYPSENSIQLSANTIKQNSRNGVVKVVFILYNNLGLFLSTENATVKLAGEAGTGGPGGASLVVNSQVIAASINKESSRVFLMDPVIFTVAHLEAKNHFNANCSFWNYSERSMLGYWSTQGCRLVESNKTHTTCACSHLTNFAVLMAHREIYQGRINELLLSVITWVGIVISLVCLAICISTFCFLRGLQTDRNTIHKNLCINLFLAELLFLVGIDKTQYEVACPIFAGLLHYFFLAAFSWLCLEGVHLYLLLVEVFESEYSRTKYYYLGGYCFPALVVGIAAAIDYRSYGTEKACWLRVDNYFIWSFIGPVSFVIVVNLVFLMVTLHKMIRSSSVLKPDSSRLDNIKSWALGAIALLFLLGLTWAFGLLFINKESVVMAYLFTTFNAFQGVFIFVFHCALQKKVHKEYSKCLRHSYCCIRSPPGGTHGSLKTSAMRSNTRYYTGTQSRIRRMWNDTVRKQTESSFMAGDINSTPTLNRGTMGNHLLTNPVLQPRGGTSPYNTLIAESVGFNPSSPPVFNSPGSYREPKHPLGGREACGMDTLPLNGNFNNSYSLRSGDFPPGDGGPEPPRGRNLADAAAFEKMIISELVHNNLRGASGGAKGPPPEPPVPPVPGVSEDEAGGPGSADRAEIELLYKALEEPLLLPRAQSVLYQSDLDESESCTAEDGATSRPLSSPPGRDSLYASGANLRDSPSYPDSSPEGPNEALPPPPPAPPGPPEIYYTSRPPALVARNPLQGYYQVRRPSHEGYLAAPSLEGPGPDGDGQMQLVTSL
As for B1, the binding entry in test [1] and in test [2] was “binds” in each case.

B2: Sorbin and SH3 domain-containing protein 1 (protein, UniProt Q62417 1-1290)
chain: MSSECDVGSSKAVVNGLASGNHGPDKDMDPTKICTGKGTVTLRASSSYRGTPSSSPVSPQESPKHESKSGLEPEDPSADEWKLSSSADTNGNAQPSPLAAKGYRSVHPSLSADKPQGSPLLNEVSSSHIETDSQDFPPTSRPSSAYPSTTIVNPTIVLLQHNRDPASERRAGEQDPVPTPAELTSPGRASERRAKDASRRVVRSAQDLSDVSTDEVGIPLRNTERSKDWYKTMFKQIHKLNRDDDSDVHSPRYSFSDDTKSPLSVPRSKSEMNYIEGEKVVKRSATLPLPARSSSLKSSPERNDWEPLDKKVDTRKYRAEPKSIYEYQPGKSSVLTNEKMSRDISPEEIDLKNEPWYKFFSELEFGRPTNLEKDLSFCQAELEADLEKVETVNKSPSANSPQSSAVSPTPDITSEPPGYIYSSNFHAVKRESDGTPGGLASLENERQIYKSVLEGGDIPLQGLSGLKRPSSSASTKVDRKGGNAHMISSSSVHSRTFHTSNALGPGCKHKKPLSAAKACISEILPSKFKPRLSAPSALLQEQKSVLLPSEKAQSCENLCVSLNDSKRGLPLRVGGSIENLLMRSRRDYDSKSSSTMSLQEYGTSSRRPCPLSRKAGLHFSMFYRDMHQINRAGLSLGSISSSSVRDLASHFERSSLTLARGELGASQEGSEHIPKHTVSSRITAFEQLIQRSRSMPSLDFSGRLSKSPTPVLSRSGLTSARSAESLLESTKLRPREMDGMDSGGVYASPTCSNMADHALSFRSLVPSEPLSICSDELDHCSNVSNDSREGSGGSVHGDFPKHRLNKCKGTCPASYTRFTTIRKHEQQSSRQSDWRSDSRGDKNSLLRNIHLMSPLPFRLKKPLQQHPRQPPPSDSSESPAGQKADLPCHDPQDQPHSAGKPQVPTRLSSRHTMARLSHNSEPPLDRPAGLEDCTRAINNGNPVPYSDHGLDRNNNPQSELAAAHGDSESPRHFIPADYLESTEEFIRRRHDDKEKLLADQRRLKREQEEADIAARRHTGVIPTHHQFITNERFGDLLNIDDTAKRKSGLEMRPARAKFDFKAQTLKELPLQKGDVVYIYRQIDQNWYEGEHHGRVGIFPRTYIELLPPAEKAQPRKLAPVQVLEYGEAIAKFNFNGDTQVEMSFRKGERITLLRQVDENWYEGRIPGTSRQGIFPITYVDVLKRPLVKTPVDYIDLPYSSSPSRSATVSPQQPQAQQRRVTPDRSQPSLDLCSYQALYSYVPQNDDELELRDGDIVDVMEKCDDGWFVGTSRRTRQFGTFPGNYVKPLYL
Take B2: the binding result in test [1] and in test [2] was “binds” in each case.

B3: Pancreatic alpha-amylase (protein, UniProt P00688 16-508)
chain: QYDPHTSDGRTAIVHLFEWRWVDIAKECERYLAPKGFGGVQVSPPNENVVVHNPSRPWWERYQPISYKICTRSGNEDEFRDMVTRCNNVGVRIYVDAVINHMCGAGNPAGTSSTCGSYLNPNNREFPAVPYSAWDFNDNKCNGEIDNYNDAYQVRNCRLTGLLDLALEKDYVRTKVADYMNHLIDIGVAGFRLDAAKHMWPGDIKAVLDKLHNLNTKWFSQGSRPFIFQEVIDLGGEAIKGSEYFGNGRVTEFKYGAKLGTVIRKWNGEKMSYLKNWGEGWGLVPSDRALVFVDNHDNQRGHGAGGSSILTFWDARMYKMAVGFMLAHPYGFTRVMSSYRWNRNFQNGKDQNDWIGPPNNNGVTKEVTINADTTCGNDWVCEHRWRQIRNMVAFRNVVNGQPFSNWWDNNSNQVAFSRGNRGFIVFNNDDWALSATLQTGLPAGTYCDVISGDKVDGNCTGLRVNVGSDGKAHFSISNSAEDPFIAIHADSKL
For B3, the binding entry in test [1] and in test [2] was “binds” throughout.
